From doi:10.1101/2024.06.07.597857
No constants are given. Whether binding was seen depends on the method and setting. Binding seen in cells or lysates may run through a third protein. Some binding calls cover weakened binding; strength is not graded here.

Amino acid sequences for entries named in this document (tags omitted).
UniProt P35222: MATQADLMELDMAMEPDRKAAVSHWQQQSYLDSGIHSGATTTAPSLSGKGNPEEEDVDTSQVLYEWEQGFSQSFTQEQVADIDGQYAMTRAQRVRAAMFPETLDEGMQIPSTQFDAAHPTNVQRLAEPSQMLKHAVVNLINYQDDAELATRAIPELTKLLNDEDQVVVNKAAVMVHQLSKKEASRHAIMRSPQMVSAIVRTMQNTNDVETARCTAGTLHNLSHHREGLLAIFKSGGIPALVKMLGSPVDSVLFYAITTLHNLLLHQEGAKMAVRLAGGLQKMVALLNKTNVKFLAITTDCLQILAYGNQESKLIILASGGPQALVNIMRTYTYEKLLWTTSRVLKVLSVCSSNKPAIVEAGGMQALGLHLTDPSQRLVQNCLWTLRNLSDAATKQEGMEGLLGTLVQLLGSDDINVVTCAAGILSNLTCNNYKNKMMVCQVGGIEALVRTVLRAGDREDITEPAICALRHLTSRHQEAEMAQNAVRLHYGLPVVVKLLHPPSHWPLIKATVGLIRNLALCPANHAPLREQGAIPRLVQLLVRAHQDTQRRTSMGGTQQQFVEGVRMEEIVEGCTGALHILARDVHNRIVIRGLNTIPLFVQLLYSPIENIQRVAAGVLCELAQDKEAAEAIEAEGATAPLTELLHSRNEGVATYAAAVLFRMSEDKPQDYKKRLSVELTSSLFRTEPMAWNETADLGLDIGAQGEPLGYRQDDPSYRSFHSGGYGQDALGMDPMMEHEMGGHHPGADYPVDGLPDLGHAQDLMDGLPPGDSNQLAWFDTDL
UniProt Q7Z4V5: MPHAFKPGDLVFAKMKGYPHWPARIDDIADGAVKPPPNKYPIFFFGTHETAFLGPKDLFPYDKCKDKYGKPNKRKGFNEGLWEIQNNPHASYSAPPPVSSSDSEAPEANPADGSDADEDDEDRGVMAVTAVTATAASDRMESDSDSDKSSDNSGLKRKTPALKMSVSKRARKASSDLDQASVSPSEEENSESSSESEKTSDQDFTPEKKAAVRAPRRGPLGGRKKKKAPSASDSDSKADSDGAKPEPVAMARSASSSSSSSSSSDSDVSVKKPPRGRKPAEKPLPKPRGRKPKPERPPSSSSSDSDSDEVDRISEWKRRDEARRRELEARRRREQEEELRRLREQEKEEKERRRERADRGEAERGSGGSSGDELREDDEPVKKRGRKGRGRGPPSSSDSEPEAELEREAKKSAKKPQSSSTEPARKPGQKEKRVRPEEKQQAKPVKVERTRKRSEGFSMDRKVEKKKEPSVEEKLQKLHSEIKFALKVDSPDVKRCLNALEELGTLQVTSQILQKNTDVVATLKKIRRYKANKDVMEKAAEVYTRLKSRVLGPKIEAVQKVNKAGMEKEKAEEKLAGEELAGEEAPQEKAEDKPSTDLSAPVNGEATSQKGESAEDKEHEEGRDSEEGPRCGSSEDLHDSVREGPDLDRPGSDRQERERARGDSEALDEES

Biological target: β-catenin (human (endogenous in ovarian carcinoma cells)) (UniProt P35222)
Experiment: co-IP

Substance: hepatoma-derived growth factor related protein 2 (HRP2) (from UniProt Q7Z4V5 1-671)
- binding: binds
